Results deposited as PubChem BioAssay AID504774 (Drosophila RNAi Screening Center, 2011)
Assay: 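Fly genes whose loss alters survival after alkylation damage to DNA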 (primary screen). Cells: Drosophila Kc167 cells. Knock-down reagent: long dsRNA against Drosophila genes, about 0.25 µg dsRNA per well. Timing: about 6 days: 3 days knock-down, then 3 days with or without MMS. Treatment: methyl methanesulphonate 0.004% (w/v) for 3 days after knock-down. Measurement: 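ATP-dependent luminescence as a measure of live cells in MMS-exposed wells, quantile normalised within each plate, with replicate values also given as a mean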. Direction: mean viability with MMS and viability with MMS: higher = more surviving cells after MMS.
The deposit covers about 23,000 reagents; below is an unselected part of those that have a named target and a result. 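Values are quantile-normalised luminescence on an arbitrary scale; higher means more cells surviving MMS.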 The numbers tell different reagents against one gene apart. Reagent sequences are not shown.

no.	gene	reagent no.	mean viability with MMS	viability with MMS, replicate 1	viability with MMS, replicate 2
1	Osi23	1	3.52e6	4.03e6	3.95e6
2	CG13989	1	3.55e6	3.99e6	4.04e6
3	CG16762	1	3.60e6	4.06e6	4.09e6
4	Mcm2	1	3.34e6	3.79e6	3.83e6
5	mus304	1	3.56e6	4.07e6	4.01e6
6	CG15111	1	3.30e6	3.80e6	3.83e6
7	CG7099	1	3.46e6	3.85e6	3.97e6
8	Nph	1	3.60e6	4.12e6	4.05e6
9	Daxx	1	3.33e6	3.79e6	3.61e6
10	REG	1	3.39e6	3.91e6	3.79e6
11	mei-P26	1	2.67e6	2.95e6	3.12e6
12	mei-P26	2	3.70e6	4.19e6	4.20e6
13	CG17027	1	3.69e6	4.14e6	4.18e6
14	Uev1A	1	3.46e6	3.92e6	3.92e6
15	nocte	1	3.66e6	4.20e6	4.32e6
16	Osi2	1	3.51e6	4.01e6	3.96e6
17	CG10492	1	2.92e6	3.46e6	3.13e6
18	CG13587	1	3.52e6	4.08e6	3.91e6
19	CG6867	1	3.66e6	4.02e6	4.24e6
20	Pink1	1	3.50e6	4.02e6	3.81e6
21	slo	1	3.50e6	3.93e6	4.02e6
22	CG6765	1	3.46e6	3.88e6	3.98e6
23	ttm50	1	3.61e6	3.96e6	4.21e6
24	trem	1	3.39e6	3.96e6	3.77e6
25	Pp2C1	1	3.59e6	3.84e6	4.07e6
26	Pp2C1	2	3.63e6	3.98e6	4.27e6
27	CG14443	1	3.63e6	4.12e6	4.12e6
28	senju	1	3.40e6	3.73e6	3.94e6
29	CG10086	1	3.53e6	4.01e6	4.00e6
30	Pp1alpha-96A	1	3.45e6	3.88e6	3.91e6
31	Pp1alpha-96A	2	3.68e6	4.21e6	4.14e6
32	Cep290	1	3.50e6	3.91e6	4.03e6
33	CG30010	1	3.45e6	4.02e6	3.78e6
34	Efa6	1	3.56e6	4.01e6	4.08e6
35	Efa6	2	3.25e6	3.69e6	3.66e6
36	Efa6	3	3.39e6	3.85e6	3.75e6
37	CG12486 (retired record)	1	3.63e6	4.21e6	4.00e6

Already shown: an excerpt of the list.
no.	gene	reagent no.	mean viability with MMS	viability with MMS, replicate 1	viability with MMS, replicate 2
16	Osi2	1	3.51e6	4.01e6	3.96e6
17	CG10492	1	2.92e6	3.46e6	3.13e6
18	CG13587	1	3.52e6	4.08e6	3.91e6
19	CG6867	1	3.66e6	4.02e6	4.24e6
20	Pink1	1	3.50e6	4.02e6	3.81e6
21	slo	1	3.50e6	3.93e6	4.02e6
22	CG6765	1	3.46e6	3.88e6	3.98e6

More reagents:
no.	gene	reagent no.	mean viability with MMS	viability with MMS, replicate 1	viability with MMS, replicate 2
38	Obp19b	1	3.62e6	4.08e6	4.08e6
39	CG10481	1	3.45e6	3.99e6	3.82e6
40	NLaz	1	3.68e6	4.18e6	4.12e6
41	CG9436	1	3.73e6	4.25e6	4.00e6
42	Sfp38D	1	3.51e6	4.08e6	3.89e6
43	CG6800	1	3.56e6	3.99e6	4.09e6
44	CG3760	1	1.82e6	4.03e6	
45	4E-T	1	3.77e6	4.37e6	4.18e6
46	4E-T	2	3.86e6	4.33e6	4.38e6
47	Pp2B-14D	1	3.34e6	3.74e6	3.77e6
48	Pp2B-14D	2	3.72e6	4.23e6	4.20e6
49	CG14931	1	3.42e6	3.96e6	3.78e6
50	CG13917	1	3.77e6	4.24e6	4.27e6
51	CG16713	1	3.73e6	4.26e6	4.08e6
52	LpR1	1	3.72e6	4.29e6	4.11e6
53	LpR1	2	3.82e6	4.16e6	4.47e6
54	LpR1	3	3.62e6	4.21e6	4.01e6
55	Ir52a	1	3.53e6	3.95e6	4.14e6
56	CycT	1	2.99e6	3.60e6	3.62e6
57	CycT	2	2.27e6	2.34e6	2.52e6
58	CG17344	1	3.55e6	3.96e6	4.10e6
59	ZnT86D	1	3.64e6	4.12e6	4.06e6
60	CG32590	1	3.55e6	3.94e6	4.11e6
61	Atox1	1	3.57e6	4.02e6	4.05e6
62	CR33315	1	3.57e6	4.03e6	4.04e6
63	GC	1	3.50e6	4.04e6	3.90e6
64	CG12974	1	3.46e6	3.97e6	3.85e6
65	Elp2	1	3.33e6	3.75e6	3.76e6
66	casp	1	3.64e6	4.04e6	4.24e6
67	CG3285	1	3.54e6	4.16e6	3.86e6
68	CG33229	1	3.41e6	3.75e6	3.94e6
69	miple1	1	3.56e6	4.07e6	3.99e6
70	CG13670	1	3.41e6	3.89e6	3.83e6
71	Ndf	1	3.45e6	3.89e6	3.88e6
72	CG18467	1	3.38e6	3.80e6	3.82e6
73	mRF1	1	3.46e6	3.85e6	3.95e6
74	Cyp6a9	1	3.97e6	4.06e6	4.46e6
75	CG33914	1	3.76e6	4.17e6	4.37e6
76	Ir92a	1	3.69e6	4.12e6	4.25e6
77	Ocrl	1	3.65e6	4.21e6	4.03e6
78	CG3402	1	3.28e6	3.74e6	3.80e6
79	Fili	1	3.47e6	3.91e6	3.98e6
80	Fili	2	3.48e6	4.02e6	3.86e6
81	Fili	3	3.64e6	4.15e6	4.10e6
82	CG9839	1	3.66e6	4.14e6	4.20e6
83	ScpX	1	3.64e6	4.05e6	4.23e6
84	CG8219	1	3.53e6	4.08e6	3.93e6
85	CG5946	1	3.57e6	4.07e6	4.01e6
86	Muc68E	1	3.55e6	4.05e6	4.01e6
87	CG30432	1	3.52e6	3.94e6	4.05e6
